Results are given in words; binding and its absence hold for the method and conditions named. In cells and extracts the contact can be indirect. Some entries that bind do so weakly or less than the wild type.
What was measured:
[1] = molecular target: PTH1R expressed in PathHunter β-arrestin cells (UniProt Q03431); assay: condition: only without PTH (1–34), ECD-scFvhFc added alone; split reporter; PathHunter β-arrestin eXpress kit, enzyme fragment complementation (β-galactosidase) in cells; agonist mode: increasing concentrations of PTH (1–34) or ECD-scFvhFc, 90 min at 37 °C; luminescence
[2] = molecular target: PTH1R expressed in PathHunter β-arrestin cells (UniProt Q03431); assay: split reporter; PathHunter β-arrestin eXpress kit, enzyme fragment complementation (β-galactosidase) in cells; agonist mode: increasing concentrations of PTH (1–34) or ECD-scFvhFc, 90 min at 37 °C; luminescence

Protein sequences, listed by entry. Tags and fused reporters are not part of them. Residues count along the entry.
UniProt Q03431, residues 27-593: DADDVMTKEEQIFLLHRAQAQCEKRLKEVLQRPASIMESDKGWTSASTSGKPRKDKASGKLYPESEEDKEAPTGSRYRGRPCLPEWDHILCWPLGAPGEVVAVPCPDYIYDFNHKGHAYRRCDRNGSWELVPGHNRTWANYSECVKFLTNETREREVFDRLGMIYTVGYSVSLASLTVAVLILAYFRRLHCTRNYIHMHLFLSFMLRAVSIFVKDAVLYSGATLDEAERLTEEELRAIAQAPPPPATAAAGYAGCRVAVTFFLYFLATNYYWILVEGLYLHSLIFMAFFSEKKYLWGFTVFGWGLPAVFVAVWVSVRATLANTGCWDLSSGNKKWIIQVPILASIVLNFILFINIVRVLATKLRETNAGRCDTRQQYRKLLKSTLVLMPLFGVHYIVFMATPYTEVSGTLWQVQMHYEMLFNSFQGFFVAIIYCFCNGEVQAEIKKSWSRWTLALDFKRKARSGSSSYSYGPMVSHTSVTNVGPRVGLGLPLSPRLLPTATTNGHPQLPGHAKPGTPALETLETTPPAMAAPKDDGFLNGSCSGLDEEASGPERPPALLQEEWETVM
UniProt P32121: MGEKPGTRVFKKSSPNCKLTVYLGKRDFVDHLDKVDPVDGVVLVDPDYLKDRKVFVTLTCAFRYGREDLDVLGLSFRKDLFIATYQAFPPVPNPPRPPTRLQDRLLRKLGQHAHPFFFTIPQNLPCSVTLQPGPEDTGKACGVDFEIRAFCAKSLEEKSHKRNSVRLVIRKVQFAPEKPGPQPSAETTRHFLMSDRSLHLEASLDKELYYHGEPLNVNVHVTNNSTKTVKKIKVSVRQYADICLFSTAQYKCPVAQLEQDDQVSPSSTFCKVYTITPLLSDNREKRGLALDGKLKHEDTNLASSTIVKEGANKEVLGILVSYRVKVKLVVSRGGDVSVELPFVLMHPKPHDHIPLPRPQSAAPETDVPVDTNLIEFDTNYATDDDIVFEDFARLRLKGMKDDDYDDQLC

binding [1]: no binding | binding [2]: binds
Substance: β-arrestin 2 (from UniProt P32121 1-409)
